The supplement of paper PMC8728848
This is one part of the list.

Tests used:
Assay in all cases: glycan array binding signal (z-score within array); higher = stronger binding
Settings in all cases: glycan notation: IUPAC condensed, linker removed
[1] = target: Fuc(a1-2)[Gal(a1-3)]Gal(b1-4)GlcNAc(b1-2)Man(a1-3)[Fuc(a1-2)[Gal(a1-3)]Gal(b1-4)GlcNAc(b1-2)Man(a1-6)]Man(b1-4)GlcNAc(b1-4)GlcNAc
Summary of the method: (§1)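 Columns mapping to the same glycan were averaged after glycan names were converted to IUPAC-condensed notation. The data come from 3228 arrays in the Consortium for Functional Glycomics database, limited to those with an available protein sequence. Binding is reported as a within-array Z-score averaged across arrays of one protein sequence and across linkers.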

[2] = target: Fuc(a1-2)[Gal(a1-3)]Gal(b1-4)GlcNAc(b1-2)Man(a1-3)[Fuc(a1-2)[Gal(a1-3)]Gal(b1-4)GlcNAc(b1-2)Man(a1-6)]Man(b1-4)GlcNAc(b1-4)[Fuc(a1-6)]GlcNAc
Summary of the method: as §1

[3] = target: Fuc(a1-2)[Gal(a1-3)]Gal(b1-4)GlcNAc(b1-3)GalNAc
Summary of the method: as §1

[4] = target: Fuc(a1-2)[Gal(a1-3)]Gal(b1-4)GlcNAc(b1-3)[Fuc(a1-2)[Gal(a1-3)]Gal(b1-4)GlcNAc(b1-6)]GalNAc
Summary of the method: as §1

[5] = target: Fuc(a1-2)[Gal(a1-3)]Gal(b1-4)GlcNAc(b1-6)GalNAc
Summary of the method: as §1

[6] = target: Fuc(a1-2)[Gal(a1-3)]Gal(b1-4)[Fuc(a1-3)]Glc
Summary of the method: as §1

[7] = target: Fuc(a1-2)[Gal(a1-3)]Gal(b1-4)[Fuc(a1-3)]GlcNAc
Summary of the method: as §1

[8] = target: Fuc(a1-2)[Gal(a1-3)]Gal(b1-4)[Fuc(a1-3)]GlcNAc(b1-3)GalNAc
Summary of the method: as §1

[9] = target: Fuc(a1-2)[Gal(a1-4)]Gal(b1-4)GlcNAc
Summary of the method: as §1

[10] = target: Fuc(a1-2)[GalNAc(a1-3)]Gal
Summary of the method: as §1

[11] = target: Fuc(a1-2)[GalNAc(a1-3)]Gal(b1-3)GalNAc(a1-3)[Fuc(a1-2)]Gal(b1-4)GlcNAc
Summary of the method: as §1

[12] = target: Fuc(a1-2)[GalNAc(a1-3)]Gal(b1-3)GalNAc(b1-3)Gal(a1-4)Gal(b1-4)Glc
Summary of the method: as §1

[13] = target: Fuc(a1-2)[GalNAc(a1-3)]Gal(b1-3)GlcNAc
Summary of the method: as §1

[14] = target: Fuc(a1-2)[GalNAc(a1-3)]Gal(b1-3)GlcNAc(b1-2)Man(a1-3)[Fuc(a1-2)[GalNAc(a1-3)]Gal(b1-3)GlcNAc(b1-2)Man(a1-6)]Man(b1-4)GlcNAc(b1-4)GlcNAc
Summary of the method: as §1

[15] = target: Fuc(a1-2)[GalNAc(a1-3)]Gal(b1-3)GlcNAc(b1-2)Man(a1-3)[Fuc(a1-2)[GalNAc(a1-3)]Gal(b1-3)GlcNAc(b1-2)Man(a1-6)]Man(b1-4)GlcNAc(b1-4)[Fuc(a1-6)]GlcNAc
Summary of the method: as §1

[16] = target: Fuc(a1-2)[GalNAc(a1-3)]Gal(b1-3)GlcNAc(b1-3)GalNAc
Summary of the method: as §1

[17] = target: Fuc(a1-2)[GalNAc(a1-3)]Gal(b1-3)GlcNAc(b1-6)GalNAc
Summary of the method: as §1

[18] = target: Fuc(a1-2)[GalNAc(a1-3)]Gal(b1-4)Glc
Summary of the method: as §1

[19] = target: Fuc(a1-2)[GalNAc(a1-3)]Gal(b1-4)GlcNAc
Summary of the method: as §1

[20] = target: Fuc(a1-2)[GalNAc(a1-3)]Gal(b1-4)GlcNAc(b1-2)Man
Summary of the method: as §1

[21] = target: Fuc(a1-2)[GalNAc(a1-3)]Gal(b1-4)GlcNAc(b1-2)Man(a1-3)[Fuc(a1-2)[GalNAc(a1-3)]Gal(b1-4)GlcNAc(b1-2)Man(a1-6)]Man(b1-4)GlcNAc(b1-4)GlcNAc
Summary of the method: as §1

[22] = target: Fuc(a1-2)[GalNAc(a1-3)]Gal(b1-4)GlcNAc(b1-2)Man(a1-3)[Fuc(a1-2)[GalNAc(a1-3)]Gal(b1-4)GlcNAc(b1-2)Man(a1-6)]Man(b1-4)GlcNAc(b1-4)[Fuc(a1-6)]GlcNAc
Summary of the method: as §1

[23] = target: Fuc(a1-2)[GalNAc(a1-3)]Gal(b1-4)GlcNAc(b1-3)Gal(b1-4)GlcNAc
Summary of the method: as §1

[24] = target: Fuc(a1-2)[GalNAc(a1-3)]Gal(b1-4)GlcNAc(b1-3)Gal(b1-4)GlcNAc(b1-3)Gal(b1-4)GlcNAc
Summary of the method: as §1

[25] = target: Fuc(a1-2)[GalNAc(a1-3)]Gal(b1-4)GlcNAc(b1-3)GalNAc
Summary of the method: as §1

[26] = target: Fuc(a1-2)[GalNAc(a1-3)]Gal(b1-4)GlcNAc(b1-3)[Fuc(a1-2)[GalNAc(a1-3)]Gal(b1-4)GlcNAc(b1-6)]GalNAc
Summary of the method: as §1

[27] = target: Fuc(a1-2)[GalNAc(a1-3)]Gal(b1-4)GlcNAc(b1-6)GalNAc
Summary of the method: as §1

[28] = target: Fuc(a1-2)[GalNAc(a1-3)]Gal(b1-4)[Fuc(a1-3)]GlcNAc
Summary of the method: as §1

[29] = target: Fuc(a1-2)[GalNAc(a1-3)]Gal(b1-4)[Fuc(a1-3)]GlcNAc(b1-3)GalNAc
Summary of the method: as §1

[30] = target: Fuc(a1-2)[GalNAc(a1-4)]Gal(b1-4)GlcNAc
Summary of the method: as §1

[31] = target: Fuc(a1-2)[GalNAc(b1-3)]Gal
Summary of the method: as §1

Fuc(a1-3)GlcNAc = target: Fuc(a1-3)GlcNAc
Summary of the method: as §1

[32] = target: Fuc(a1-3)[Gal(b1-4)]Glc6S
Summary of the method: as §1

[33] = target: Fuc(a1-3)[Gal(b1-4)]GlcNAc
Summary of the method: as §1

[34] = target: Fuc(a1-3)[Gal(b1-4)]GlcNAc(b1-2)Man
Summary of the method: as §1

[35] = target: Fuc(a1-3)[Gal(b1-4)]GlcNAc(b1-2)Man(a1-3)[Fuc(a1-3)[Gal(b1-4)]GlcNAc(b1-2)Man(a1-6)]Man(b1-4)GlcNAc(b1-4)GlcNAc
Summary of the method: as §1

[36] = target: Fuc(a1-3)[Gal(b1-4)]GlcNAc(b1-2)Man(a1-3)[Fuc(a1-3)[Gal(b1-4)]GlcNAc(b1-2)Man(a1-6)]Man(b1-4)GlcNAc(b1-4)[Fuc(a1-6)]GlcNAc
Summary of the method: as §1

[37] = target: Fuc(a1-3)[Gal(b1-4)]GlcNAc(b1-3)Gal(b1-3)[Fuc(a1-4)]GlcNAc
Summary of the method: as §1

[38] = target: Fuc(a1-3)[Gal(b1-4)]GlcNAc(b1-3)Gal(b1-4)[Fuc(a1-3)]GlcNAc
Summary of the method: as §1

[39] = target: Fuc(a1-3)[Gal(b1-4)]GlcNAc(b1-3)Gal(b1-4)[Fuc(a1-3)]GlcNAc(b1-3)Gal(b1-4)[Fuc(a1-3)]GlcNAc
Summary of the method: as §1

[40] = target: Fuc(a1-3)[Gal(b1-4)]GlcNAc(b1-3)GalNAc
Summary of the method: as §1

[41] = target: Fuc(a1-3)[Gal(b1-4)]GlcNAc(b1-6)GalNAc
Summary of the method: as §1

[42] = target: Fuc(a1-3)[Gal(b1-4)]GlcNAc(b1-6)[Gal(b1-3)GlcNAc(b1-3)]Gal(b1-4)Glc
Summary of the method: as §1

[43] = target: Fuc(a1-3)[Gal(b1-4)]GlcNAc6S
Summary of the method: as §1

[44] = target: Fuc(a1-3)[Gal3S(b1-4)]Glc
Summary of the method: as §1

[45] = target: Fuc(a1-3)[Gal3S(b1-4)]GlcNAc
Summary of the method: as §1

[46] = target: Fuc(a1-3)[Gal3S(b1-4)]GlcNAc6S
Summary of the method: as §1

[47] = target: Fuc(a1-3)[GalNAc(b1-4)]GlcNAc
Summary of the method: as §1

[48] = target: Fuc(a1-3)[GalNAc(b1-4)]GlcNAc6S
Summary of the method: as §1

Fuc(a1-4)GlcNAc = target: Fuc(a1-4)GlcNAc
Summary of the method: as §1

Fuc(b1-3)GlcNAc = target: Fuc(b1-3)GlcNAc
Summary of the method: as §1

Gal(a1-2)Gal = target: Gal(a1-2)Gal
Summary of the method: as §1

Gal(a1-3)Gal = target: Gal(a1-3)Gal
Summary of the method: as §1

Gal(a1-3)Gal(b1-3)GlcNAc = target: Gal(a1-3)Gal(b1-3)GlcNAc
Summary of the method: as §1

[49] = target: Gal(a1-3)Gal(b1-3)GlcNAc(b1-2)Man
Summary of the method: as §1

[50] = target: Gal(a1-3)Gal(b1-3)GlcNAc(b1-2)Man(a1-3)[Gal(a1-3)Gal(b1-3)GlcNAc(b1-2)Man(a1-6)]Man(b1-4)GlcNAc(b1-4)GlcNAc
Summary of the method: as §1

[51] = target: Gal(a1-3)Gal(b1-3)GlcNAc(b1-3)GalNAc
Summary of the method: as §1

[52] = target: Gal(a1-3)Gal(b1-3)GlcNAc(b1-6)GalNAc
Summary of the method: as §1

[53] = target: Gal(a1-3)Gal(b1-3)[Fuc(a1-4)]GlcNAc(b1-2)Man(a1-3)[Gal(a1-3)Gal(b1-3)[Fuc(a1-4)]GlcNAc(b1-2)Man(a1-6)]Man(b1-4)GlcNAc(b1-4)GlcNAc
Summary of the method: as §1

Gal(a1-3)Gal(b1-4)Glc = target: Gal(a1-3)Gal(b1-4)Glc
Summary of the method: as §1

B1: Erv41-EDTA (Saccharomyces cerevisiae), Q04651 (protein)
chain: MKFLVNVALVFMVVYISYIYAAAPEHHHHHHDYDIPTTENLYFQGAMGYIDQQYVVDSQVRDTVQINMDIYVNTKCDWLQINVRDQTMDRKLVLEELQLEEMPFFIPYDTKVNDINEIITPELDEILGEAIPAEFREKLDTRSFFDESDPNKAHLPEFNGCHVFGSIPVNRVSGELQITAKSLGYVASRKAPLEELKFNHVINEFSFGDFYPYIDNPLDNTAQFNQDEPLTTYVYYTSVVPTLFKKLGAEVDTNQYSVNDYRYLYKDVAAKGDKMPGIFFKYNFEPLSIVVSDVRL
glycan array binding signal (z-score) [1]: 1.55 | glycan array binding signal (z-score) [2]: -0.299 | glycan array binding signal (z-score) [3]: 0.779 | glycan array binding signal (z-score) [4]: 0.595 | glycan array binding signal (z-score) [5]: 0.141 | glycan array binding signal (z-score) [6]: -0.478 | glycan array binding signal (z-score) [7]: -0.592 | glycan array binding signal (z-score) [8]: 0.33 | glycan array binding signal (z-score) [9]: 0.519 | glycan array binding signal (z-score) [10]: -0.488 | glycan array binding signal (z-score) [11]: 0.174 | glycan array binding signal (z-score) [12]: -0.058 | glycan array binding signal (z-score) [13]: -0.953 | glycan array binding signal (z-score) [14]: 0.382 | glycan array binding signal (z-score) [15]: 0.311 | glycan array binding signal (z-score) [16]: -0.104 | glycan array binding signal (z-score) [17]: -0.093 | glycan array binding signal (z-score) [18]: -0.657 | glycan array binding signal (z-score) [19]: 0.079 | glycan array binding signal (z-score) [20]: -0.289 | glycan array binding signal (z-score) [21]: 0.526 | glycan array binding signal (z-score) [22]: 1.01 | glycan array binding signal (z-score) [23]: 0.162 | glycan array binding signal (z-score) [24]: 0.784 | glycan array binding signal (z-score) [25]: -0.654 | glycan array binding signal (z-score) [26]: -0.844 | glycan array binding signal (z-score) [27]: 0.169 | glycan array binding signal (z-score) [28]: -0.12 | glycan array binding signal (z-score) [29]: 0.16 | glycan array binding signal (z-score) [30]: -0.189 | glycan array binding signal (z-score) [31]: -0.459 | glycan array binding signal (z-score) (Fuc(a1-3)GlcNAc): -0.823 | glycan array binding signal (z-score) [32]: 0.606 | glycan array binding signal (z-score) [33]: -0.54 | glycan array binding signal (z-score) [34]: -0.808 | glycan array binding signal (z-score) [35]: 0.228 | glycan array binding signal (z-score) [36]: 0.071 | glycan array binding signal (z-score) [37]: -0.893 | glycan array binding signal (z-score) [38]: 0.341 | glycan array binding signal (z-score) [39]: -0.434 | glycan array binding signal (z-score) [40]: 0.188 | glycan array binding signal (z-score) [41]: 0.701 | glycan array binding signal (z-score) [42]: -0.248 | glycan array binding signal (z-score) [43]: 0.213 | glycan array binding signal (z-score) [44]: -0.042 | glycan array binding signal (z-score) [45]: 0.26 | glycan array binding signal (z-score) [46]: 0.891 | glycan array binding signal (z-score) [47]: -0.82 | glycan array binding signal (z-score) [48]: -0.156 | glycan array binding signal (z-score) (Fuc(a1-4)GlcNAc): 0.581 | glycan array binding signal (z-score) (Fuc(b1-3)GlcNAc): 0 | glycan array binding signal (z-score) (Gal(a1-2)Gal): -1.08 | glycan array binding signal (z-score) (Gal(a1-3)Gal): -0.247 | glycan array binding signal (z-score) (Gal(a1-3)Gal(b1-3)GlcNAc): -0.59 | glycan array binding signal (z-score) [49]: 0.946 | glycan array binding signal (z-score) [50]: 1.34 | glycan array binding signal (z-score) [51]: 0.17 | glycan array binding signal (z-score) [52]: 0.496 | glycan array binding signal (z-score) [53]: -0.414 | glycan array binding signal (z-score) (Gal(a1-3)Gal(b1-4)Glc): -0.338
